These results are taken from PMC8770743.

The target of assay [1] is T1, Nuclear factor erythroid-2-related factor-2 (human (endogenous in PDLSCs)) (UniProt Q16236).
T1 sequence: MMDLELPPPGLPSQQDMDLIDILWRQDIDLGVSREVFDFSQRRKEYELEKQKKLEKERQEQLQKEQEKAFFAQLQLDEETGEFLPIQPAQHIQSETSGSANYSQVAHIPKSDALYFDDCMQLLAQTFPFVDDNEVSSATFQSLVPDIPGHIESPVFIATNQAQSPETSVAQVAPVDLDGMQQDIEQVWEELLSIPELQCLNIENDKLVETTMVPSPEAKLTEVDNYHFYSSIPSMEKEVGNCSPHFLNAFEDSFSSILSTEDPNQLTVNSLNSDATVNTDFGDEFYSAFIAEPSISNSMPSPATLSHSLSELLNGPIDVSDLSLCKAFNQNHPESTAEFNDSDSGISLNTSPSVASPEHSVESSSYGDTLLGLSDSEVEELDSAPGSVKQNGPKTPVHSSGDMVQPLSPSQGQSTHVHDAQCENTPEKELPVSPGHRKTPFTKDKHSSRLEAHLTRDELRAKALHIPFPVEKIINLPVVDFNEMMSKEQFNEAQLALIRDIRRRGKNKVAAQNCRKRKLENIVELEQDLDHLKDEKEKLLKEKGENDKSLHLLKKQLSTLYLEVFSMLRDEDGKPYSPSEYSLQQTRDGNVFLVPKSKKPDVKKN
Description: co-IP; endogenous proteins in NP-40 lysate of human PDLSCs (cyclic mechanical stress; with or without t-BHQ); primary antibody (2.5 ug) and Protein A/G Plus Agarose at 4°C overnight, washed three times with NP-40 lysis buffer, western blotting. A general note: A western blot detects proteins with antibodies after separation by electrophoresis.

The target of assay [2] is protein kinase B (human (endogenous in PDLSCs)). Described as above.

These are yes or no findings as the source states them, for the method shown. Binding seen in cells or lysates may run through a third protein. Binding can be weak; no strength is given.

Take “protein kinase B (human (endogenous in PDLSCs)) (enzyme)”: in assay [1], the binding result is listed as “binds”.

B1: Nuclear factor erythroid-2-related factor-2 (protein, UniProt Q16236 1-605)
chain: T1 sequence
B1: the binding result in assay [2] is “binds”.
